Results: the supplement of paper PMC10849652
Some of the results follow.

By UniProt entry, the sequences of proteins in these tests, tags left out. Where a name states a change or a piece, a line headed by the entry shows the natural chain unless it says otherwise.
UniProt Q9NQ35: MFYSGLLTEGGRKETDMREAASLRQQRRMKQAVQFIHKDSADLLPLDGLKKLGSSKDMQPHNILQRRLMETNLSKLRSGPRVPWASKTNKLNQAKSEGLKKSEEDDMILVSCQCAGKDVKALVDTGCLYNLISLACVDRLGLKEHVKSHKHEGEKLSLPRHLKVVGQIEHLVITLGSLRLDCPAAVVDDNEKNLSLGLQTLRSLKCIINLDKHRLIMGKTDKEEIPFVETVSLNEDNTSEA
UniProt Q96TA1: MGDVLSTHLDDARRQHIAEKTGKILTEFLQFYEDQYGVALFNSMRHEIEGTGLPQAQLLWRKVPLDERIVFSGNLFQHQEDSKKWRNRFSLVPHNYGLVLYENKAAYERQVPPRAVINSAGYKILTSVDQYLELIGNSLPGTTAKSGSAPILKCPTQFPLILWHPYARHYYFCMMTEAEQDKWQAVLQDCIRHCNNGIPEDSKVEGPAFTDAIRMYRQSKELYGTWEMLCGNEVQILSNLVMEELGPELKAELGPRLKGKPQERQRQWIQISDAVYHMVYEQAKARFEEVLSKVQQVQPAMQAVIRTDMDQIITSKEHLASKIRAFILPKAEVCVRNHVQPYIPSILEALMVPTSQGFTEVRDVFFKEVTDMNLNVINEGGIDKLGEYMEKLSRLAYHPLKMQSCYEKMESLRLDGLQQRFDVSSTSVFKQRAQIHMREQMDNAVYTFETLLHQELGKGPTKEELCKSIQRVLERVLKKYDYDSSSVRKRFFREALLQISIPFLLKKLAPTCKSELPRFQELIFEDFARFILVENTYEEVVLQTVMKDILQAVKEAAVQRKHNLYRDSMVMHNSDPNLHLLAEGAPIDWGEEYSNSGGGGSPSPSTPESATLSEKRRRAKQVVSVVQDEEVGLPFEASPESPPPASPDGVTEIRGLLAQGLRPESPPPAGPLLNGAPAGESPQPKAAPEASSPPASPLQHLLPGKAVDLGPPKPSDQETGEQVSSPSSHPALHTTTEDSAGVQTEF
UniProt Q9GZT8: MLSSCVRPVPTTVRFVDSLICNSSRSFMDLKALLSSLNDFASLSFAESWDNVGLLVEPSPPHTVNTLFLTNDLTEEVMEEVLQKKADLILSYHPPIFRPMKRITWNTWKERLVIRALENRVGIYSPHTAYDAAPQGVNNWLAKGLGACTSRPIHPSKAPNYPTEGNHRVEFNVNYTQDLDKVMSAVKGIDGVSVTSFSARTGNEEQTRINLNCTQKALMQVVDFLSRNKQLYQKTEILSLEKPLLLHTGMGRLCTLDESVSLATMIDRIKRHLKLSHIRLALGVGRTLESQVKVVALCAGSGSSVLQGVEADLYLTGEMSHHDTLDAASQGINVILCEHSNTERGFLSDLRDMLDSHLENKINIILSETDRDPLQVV
UniProt Q8TD19: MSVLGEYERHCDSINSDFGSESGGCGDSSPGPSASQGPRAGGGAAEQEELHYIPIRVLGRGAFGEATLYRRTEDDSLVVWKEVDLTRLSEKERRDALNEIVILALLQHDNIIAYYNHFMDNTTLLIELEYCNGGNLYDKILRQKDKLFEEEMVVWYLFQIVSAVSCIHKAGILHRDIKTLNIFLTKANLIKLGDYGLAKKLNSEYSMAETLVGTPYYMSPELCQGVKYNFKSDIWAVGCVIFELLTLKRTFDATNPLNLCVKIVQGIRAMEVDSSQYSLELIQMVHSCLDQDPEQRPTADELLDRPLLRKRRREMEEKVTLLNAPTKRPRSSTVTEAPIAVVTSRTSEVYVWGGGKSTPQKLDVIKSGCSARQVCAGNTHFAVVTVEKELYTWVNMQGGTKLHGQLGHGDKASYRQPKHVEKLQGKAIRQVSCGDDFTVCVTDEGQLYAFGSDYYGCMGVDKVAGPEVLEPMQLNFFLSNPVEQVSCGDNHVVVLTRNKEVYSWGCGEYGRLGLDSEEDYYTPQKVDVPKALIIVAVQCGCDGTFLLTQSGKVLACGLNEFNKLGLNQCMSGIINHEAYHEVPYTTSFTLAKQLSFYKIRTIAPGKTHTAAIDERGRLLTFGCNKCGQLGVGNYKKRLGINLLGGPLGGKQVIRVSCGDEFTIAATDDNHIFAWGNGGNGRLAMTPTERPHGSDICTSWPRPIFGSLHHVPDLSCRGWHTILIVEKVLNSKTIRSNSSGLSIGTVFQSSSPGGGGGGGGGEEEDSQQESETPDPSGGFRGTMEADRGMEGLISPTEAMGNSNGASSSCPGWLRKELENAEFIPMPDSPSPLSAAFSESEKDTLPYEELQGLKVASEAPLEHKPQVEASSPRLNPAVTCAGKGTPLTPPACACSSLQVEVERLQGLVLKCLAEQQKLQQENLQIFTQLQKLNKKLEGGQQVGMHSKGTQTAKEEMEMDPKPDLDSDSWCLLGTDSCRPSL
UniProt Q9BPW8: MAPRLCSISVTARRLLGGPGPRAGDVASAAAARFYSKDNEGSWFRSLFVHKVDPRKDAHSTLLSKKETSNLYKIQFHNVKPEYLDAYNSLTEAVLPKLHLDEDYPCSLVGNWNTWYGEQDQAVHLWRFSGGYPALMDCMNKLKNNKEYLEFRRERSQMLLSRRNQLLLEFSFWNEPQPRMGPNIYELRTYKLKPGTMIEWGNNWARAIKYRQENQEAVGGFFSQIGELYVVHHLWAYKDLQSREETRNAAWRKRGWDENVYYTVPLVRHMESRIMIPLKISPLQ
UniProt Q13287: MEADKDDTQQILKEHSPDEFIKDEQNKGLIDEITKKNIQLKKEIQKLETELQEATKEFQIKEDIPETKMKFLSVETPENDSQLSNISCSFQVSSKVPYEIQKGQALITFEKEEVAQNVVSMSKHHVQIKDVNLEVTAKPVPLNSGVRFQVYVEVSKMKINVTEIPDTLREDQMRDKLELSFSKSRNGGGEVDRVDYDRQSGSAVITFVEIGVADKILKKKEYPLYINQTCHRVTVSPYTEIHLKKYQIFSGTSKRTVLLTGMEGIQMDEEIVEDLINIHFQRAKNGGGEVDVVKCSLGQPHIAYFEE
UniProt Q9BXD5: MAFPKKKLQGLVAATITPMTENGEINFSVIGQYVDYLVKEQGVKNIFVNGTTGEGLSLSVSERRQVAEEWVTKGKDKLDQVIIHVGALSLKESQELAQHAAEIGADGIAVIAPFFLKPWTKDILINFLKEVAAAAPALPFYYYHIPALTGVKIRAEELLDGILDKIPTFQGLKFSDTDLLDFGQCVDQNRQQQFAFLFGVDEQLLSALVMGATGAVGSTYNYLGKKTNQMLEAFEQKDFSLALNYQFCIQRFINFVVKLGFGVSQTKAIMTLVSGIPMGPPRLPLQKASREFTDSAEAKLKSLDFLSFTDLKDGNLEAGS
UniProt Q9Y697: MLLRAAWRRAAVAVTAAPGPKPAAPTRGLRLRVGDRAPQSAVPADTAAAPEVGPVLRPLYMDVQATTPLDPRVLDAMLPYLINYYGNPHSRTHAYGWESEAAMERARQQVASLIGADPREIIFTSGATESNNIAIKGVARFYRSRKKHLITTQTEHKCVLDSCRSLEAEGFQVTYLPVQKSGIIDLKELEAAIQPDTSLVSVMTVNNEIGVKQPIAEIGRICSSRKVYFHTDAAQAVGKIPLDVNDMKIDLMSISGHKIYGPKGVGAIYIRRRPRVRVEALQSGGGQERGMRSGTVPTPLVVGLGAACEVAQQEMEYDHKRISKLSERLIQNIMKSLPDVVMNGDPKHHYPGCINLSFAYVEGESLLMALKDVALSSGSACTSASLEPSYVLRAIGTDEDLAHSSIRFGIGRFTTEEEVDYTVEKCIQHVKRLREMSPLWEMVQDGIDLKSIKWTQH
UniProt P35240: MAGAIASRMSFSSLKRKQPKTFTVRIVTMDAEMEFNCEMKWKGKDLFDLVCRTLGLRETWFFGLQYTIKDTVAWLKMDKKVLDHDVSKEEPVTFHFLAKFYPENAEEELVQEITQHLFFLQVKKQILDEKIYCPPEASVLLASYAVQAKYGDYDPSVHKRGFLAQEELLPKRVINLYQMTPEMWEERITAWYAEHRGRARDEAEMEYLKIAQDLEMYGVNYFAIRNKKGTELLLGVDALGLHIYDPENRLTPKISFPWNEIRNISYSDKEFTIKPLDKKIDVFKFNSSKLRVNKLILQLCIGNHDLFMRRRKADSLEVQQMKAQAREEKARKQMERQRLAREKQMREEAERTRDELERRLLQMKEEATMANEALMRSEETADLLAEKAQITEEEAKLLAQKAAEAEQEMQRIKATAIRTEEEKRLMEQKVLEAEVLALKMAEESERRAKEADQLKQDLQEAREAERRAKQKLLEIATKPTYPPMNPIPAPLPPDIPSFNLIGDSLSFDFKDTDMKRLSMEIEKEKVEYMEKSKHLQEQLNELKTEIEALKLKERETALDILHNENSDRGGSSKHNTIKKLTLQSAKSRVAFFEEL
UniProt Q8TAT6: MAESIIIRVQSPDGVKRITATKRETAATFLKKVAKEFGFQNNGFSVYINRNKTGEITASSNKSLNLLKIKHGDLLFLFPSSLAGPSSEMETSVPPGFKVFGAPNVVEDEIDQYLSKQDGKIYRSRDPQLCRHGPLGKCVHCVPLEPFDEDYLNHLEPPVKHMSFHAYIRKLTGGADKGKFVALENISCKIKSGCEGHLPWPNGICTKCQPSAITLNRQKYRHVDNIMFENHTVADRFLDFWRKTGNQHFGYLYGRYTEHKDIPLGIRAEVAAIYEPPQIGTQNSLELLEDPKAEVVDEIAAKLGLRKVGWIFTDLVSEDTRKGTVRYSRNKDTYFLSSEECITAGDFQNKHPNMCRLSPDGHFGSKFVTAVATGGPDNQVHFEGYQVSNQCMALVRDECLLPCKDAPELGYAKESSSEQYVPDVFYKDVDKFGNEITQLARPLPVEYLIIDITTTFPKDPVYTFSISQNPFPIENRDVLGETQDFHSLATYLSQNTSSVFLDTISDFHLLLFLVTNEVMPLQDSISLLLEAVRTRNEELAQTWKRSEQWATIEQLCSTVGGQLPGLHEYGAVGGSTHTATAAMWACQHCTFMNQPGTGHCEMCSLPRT
UniProt O75414: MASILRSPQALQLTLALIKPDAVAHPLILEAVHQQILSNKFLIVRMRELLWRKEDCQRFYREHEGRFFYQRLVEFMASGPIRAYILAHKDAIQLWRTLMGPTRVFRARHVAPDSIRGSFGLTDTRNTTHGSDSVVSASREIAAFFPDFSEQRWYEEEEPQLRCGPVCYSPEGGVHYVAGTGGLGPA
UniProt Q8TDX7: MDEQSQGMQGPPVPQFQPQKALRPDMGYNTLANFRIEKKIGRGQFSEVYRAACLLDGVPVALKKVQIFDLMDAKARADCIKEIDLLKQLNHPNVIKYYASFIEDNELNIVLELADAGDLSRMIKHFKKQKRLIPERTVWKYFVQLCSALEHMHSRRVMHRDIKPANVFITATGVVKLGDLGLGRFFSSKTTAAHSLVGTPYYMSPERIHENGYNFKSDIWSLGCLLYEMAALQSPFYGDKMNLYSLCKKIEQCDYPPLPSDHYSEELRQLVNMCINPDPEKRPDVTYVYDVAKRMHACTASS
UniProt Q9BYT8, whole entry, looked up: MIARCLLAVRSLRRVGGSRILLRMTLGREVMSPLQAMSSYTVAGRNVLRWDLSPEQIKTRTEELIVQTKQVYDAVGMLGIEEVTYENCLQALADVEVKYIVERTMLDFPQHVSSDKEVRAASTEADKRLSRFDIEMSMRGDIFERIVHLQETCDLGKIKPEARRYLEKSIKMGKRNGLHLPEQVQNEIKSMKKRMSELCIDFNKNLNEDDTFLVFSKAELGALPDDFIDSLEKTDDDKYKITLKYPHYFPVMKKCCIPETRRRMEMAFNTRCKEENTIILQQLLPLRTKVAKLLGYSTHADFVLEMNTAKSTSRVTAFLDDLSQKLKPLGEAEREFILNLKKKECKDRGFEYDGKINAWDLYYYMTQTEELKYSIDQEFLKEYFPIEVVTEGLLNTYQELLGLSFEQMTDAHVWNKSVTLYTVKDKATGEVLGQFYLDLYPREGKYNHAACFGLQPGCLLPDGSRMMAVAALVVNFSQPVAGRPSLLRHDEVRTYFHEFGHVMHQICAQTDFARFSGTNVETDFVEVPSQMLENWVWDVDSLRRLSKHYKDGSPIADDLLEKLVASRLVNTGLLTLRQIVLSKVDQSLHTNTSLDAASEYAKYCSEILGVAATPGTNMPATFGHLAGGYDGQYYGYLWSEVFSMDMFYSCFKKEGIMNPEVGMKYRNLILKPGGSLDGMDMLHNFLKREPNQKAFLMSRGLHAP
UniProt Q86X76: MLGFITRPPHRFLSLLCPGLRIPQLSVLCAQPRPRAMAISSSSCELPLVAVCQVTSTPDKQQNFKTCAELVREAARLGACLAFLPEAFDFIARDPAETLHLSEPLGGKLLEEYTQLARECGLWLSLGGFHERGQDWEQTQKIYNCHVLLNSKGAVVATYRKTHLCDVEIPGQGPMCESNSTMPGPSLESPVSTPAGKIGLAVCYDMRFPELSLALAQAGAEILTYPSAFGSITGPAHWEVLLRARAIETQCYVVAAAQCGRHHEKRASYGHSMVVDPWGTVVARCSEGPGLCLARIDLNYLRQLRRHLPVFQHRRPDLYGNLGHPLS

How the values were obtained:
Assay in all cases: log2 fold change, soluble protein after heating vs DMSO (PISA); higher = thermal stabilisation; K562 cells, 10 uM, 30 min; active = over 0.2 and 3.5 SD of the protein, either way, in both replicates (recomputed)
[1] = compound: CS(=O)(=O)c1ccc(-c2cnc(N)c(C(=O)Nc3ccccc3)n2)cc1
Procedure, shortened: (§1)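 Aliquots of K562 cells (2×10^6 cells/mL) treated with 10 μM compound for 30 min were heated for 3 min over 48°C-58°C. After pooling and extraction in PBS with 0.5% NP-40 at 4°C, soluble protein from a 21,000xg, 90 min spin was quantified by TMTpro 16plex LC-MS/MS with channel sums equalised. Thermal stability is expressed against control samples, from duplicates, as a log2 fold change.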

[2] = compound: C[C@@H](Oc1cc(-c2cnn(C3CCNCC3)c2)cnc1N)c1c(Cl)ccc(F)c1Cl [crizotinib]
Procedure, shortened: as §1

[3] = compound: C[C@@H]1COCCN1C2=NC(=NC(=C2)C3(CC3)S(=O)(=O)C)C4=C5C=CNC5=CC=C4
Procedure, shortened: as §1

[4] = compound: C[C@H](C1=CC=C(C=C1)C(=O)NC2=C3C=CNC3=NC=C2)N
Procedure, shortened: as §1

[5] = compound: C[C@H](Nc1ncnc2nc[nH]c12)c1cc2cccc(Cl)c2c(=O)n1-c1ccccc1 [duvelisib]
Procedure, shortened: as §1

[6] = compound: Cc1cc(Nc2cc(CN3CCOCC3)c3nc(C)c(Cc4ccc(Cl)cc4F)n3n2)n[nH]1 [gandotinib]
Procedure, shortened: as §1

[7] = compound: Cc1cc(Nc2cc(N3CCN(C)CC3)nc(Sc3ccc(NC(=O)C4CC4)cc3)n2)n[nH]1 [tozasertib]
Procedure, shortened: as §1

[8] = compound: Cc1cc(SCc2sc(-c3ccc(C(F)(F)F)cc3)nc2C)ccc1OCC(=O)O
Procedure, shortened: as §1

[9] = compound: Cc1ccc(-n2nc(C(C)(C)C)cc2NC(=O)Nc2ccc(OCCN3CCOCC3)c3ccccc23)cc1 [doramapimod]
Procedure, shortened: as §1

[10] = compound: Cc1ccc(C(=O)N(CCCN)[C@@H](c2nc3cc(Cl)ccc3c(=O)n2Cc2ccccc2)C(C)C)cc1 [ispinesib]
Procedure, shortened: as §1

[11] = compound: Cc1ccc(NC(=O)c2ccc(CN3CC[C@H](N(C)C)C3)c(C(F)(F)F)c2)cc1Nc1nccc(-c2cncnc2)n1 [bafetinib]
Procedure, shortened: as §1

[12] = compound: Cc1cccc(CC(=O)N2CCc3c2ccc(-c2cn(C)c4ncnc(N)c24)c3F)n1
Procedure, shortened: as §1

[13] = compound: Cc1cn(-c2cc(NC(=O)c3ccc(C)c(Nc4nccc(-c5cccnc5)n4)c3)cc(C(F)(F)F)c2)cn1 [nilotinib]
Procedure, shortened: as §1

[14] = compound: Cc1nc(Nc2n[nH]c3c2CN(C(=O)N[C@H](CN(C)C)c2ccccc2)C3(C)C)c2sccc2n1
Procedure, shortened: as §1

[15] = compound: Cc1nc(Nc2ncc(C(=O)Nc3c(C)cccc3Cl)s2)cc(N2CCN(CCO)CC2)n1 [dasatinib]
Procedure, shortened: as §1

[16] = compound: Cc1ncc(-c2ccnc(Nc3ccc(S(C)(=O)=O)cc3)n2)n1C(C)C
Procedure, shortened: as §1

[17] = compound: Cn1cc(-c2ccc3c(c2)CCN3C(=O)Cc2cccc(C(F)(F)F)c2)c2c(N)ncnc21
Procedure, shortened: as §1

[18] = compound: Cn1cc(-c2ccc3nnc(C(F)(F)c4ccc5ncccc5c4)n3n2)cn1
Procedure, shortened: as §1

[19] = compound: Cn1cncc1[C@@](N)(c1ccc(Cl)cc1)c1ccc2c(c1)c(-c1cccc(Cl)c1)cc(=O)n2C [tipifarnib]
Procedure, shortened: as §1

[20] = compound: FC(F)(F)c1ccc(/C=C/c2nc(COc3ccc(CCCCn4ccnn4)cc3)co2)cc1 [mubritinib]
Procedure, shortened: as §1

Measured: log2 fold change

NRIP3 (UniProt Q9NQ35)
inactive: [1] 0.055

NIBAN2 (UniProt Q96TA1)
inactive: [1] 0.022 | [2] 0.017 | [3] 0.065 | [4] -0.05 | [5] 0.022 | [6] -0.05 | [7] -0.048 | [8] -0.017 | [9] -0.021 | [10] 0.048 | [11] -0.004 | [12] -0.001 | [13] 0 | [14] -0.003 | [15] -0.048 | [16] -0.02 | [17] 0.022 | [18] 0.018 | [19] -0.03 | [20] 0.065

NIPA2 (UniProt Q8N8Q9)
inactive: [1] 0.076 | [2] 0.031 | [3] -0.008 | [4] -0.344 | [5] -0.042 | [6] -0.077 | [7] -0.002 | [8] 0.164 | [9] 0.036 | [10] -0.024 | [11] -0.073 | [12] 0.067 | [13] 0.152 | [14] -0.049 | [15] -0.211 | [16] 0.009 | [17] 0.019 | [18] 0.017 | [19] -0.042 | [20] -0.086

NIF3L1 (UniProt Q9GZT8)
inactive: [1] 0.062 | [2] 0.078 | [3] -0.02 | [4] -0.032 | [5] 0.016 | [6] 0.082 | [7] -0.03 | [8] -0.052 | [9] 0.006 | [10] 0.042 | [11] -0.197 | [12] -0.046 | [13] -0.019 | [14] 0.005 | [15] 0.018 | [16] -0.011 | [17] 0.004 | [18] 0.011 | [19] 0.029 | [20] 0.04

NR2F2 (UniProt P24468)
inactive: [1] 0.038 | [2] 0.081 | [3] 0.038 | [4] -0.054 | [5] 0.078 | [6] -0.008 | [7] 0.036 | [8] 0.084 | [9] -0.022 | [10] 0.039 | [11] 0.021 | [12] 0.016 | [13] 0.045 | [14] -0.105 | [15] 0.003 | [16] -0.028 | [17] 0.036 | [18] 0.045 | [19] -0.036 | [20] 0.051

NEK9 (UniProt Q8TD19)
inactive: [1] 0.053 | [2] -0.072 | [3] 0.026 | [4] -0.008 | [5] 0.008 | [6] -0.024 | [7] 0 | [8] 0.003 | [9] 0.013 | [10] -0.035 | [11] -0.067 | [12] -0.004 | [13] -0.029 | [14] 0.002 | [15] -0.079 | [16] 0 | [17] 0.013 | [18] -0.009 | [19] 0.014 | [20] -0.008

NIPSNAP1 (UniProt Q9BPW8)
inactive: [1] 0.056 | [2] 0.035 | [3] 0.146 | [4] -0.084 | [5] 0.049 | [6] 0.117 | [7] -0.046 | [8] 0.079 | [9] -0.052 | [10] 0.131 | [11] 0.005 | [12] -0.047 | [13] 0.13 | [14] -0.041 | [15] 0.027 | [16] -0.014 | [17] 0.093 | [18] 0.028 | [19] -0.083 | [20] 0.056

NMI (UniProt Q13287)
inactive: [1] 0.024 | [2] 0.006 | [3] 0.057 | [4] -0.027 | [5] 0.017 | [6] -0.006 | [7] -0.053 | [8] -0.012 | [9] 0.02 | [10] -0.009 | [11] -0.011 | [12] -0.034 | [13] -0.009 | [14] -0.014 | [15] 0.025 | [16] -0.008 | [17] 0.04 | [18] 0.034 | [19] -0.023 | [20] 0.05

NELFE isoform 3 (UniProt P18615)
inactive: [1] -0.051 | [2] 0 | [3] -0.006 | [4] -0.025 | [5] 0.037 | [6] 0.065 | [7] -0.004 | [8] -0.021 | [9] -0.041 | [10] 0.048 | [11] -0.127 | [12] -0.076 | [13] -0.033 | [14] -0.212 | [15] -0.019 | [16] 0.036 | [17] -0.041 | [18] 0.016 | [19] 0.035 | [20] 0.034

NPL (UniProt Q9BXD5)
inactive: [1] 0.033 | [2] -0.035 | [3] 0.025 | [4] 0.189 | [5] 0.014 | [6] -0.18 | [7] 0.124 | [8] 0.039 | [9] 0.067 | [10] 0.317 | [11] 0.085 | [12] -0.012 | [13] -0.056 | [14] -0.022 | [15] -0.012 | [16] 0.047 | [17] -0.153 | [18] 0.077 | [19] -0.044 | [20] 0.145

NFS1 (UniProt Q9Y697)
inactive: [1] 0.026 | [2] 0.071 | [3] 0.084 | [4] -0.03 | [5] 0.065 | [6] 0 | [7] -0.036 | [8] 0.024 | [9] -0.031 | [10] 0.075 | [11] -0.026 | [12] 0.006 | [13] -0.015 | [14] 0.001 | [15] -0.025 | [16] 0.013 | [17] 0.035 | [18] 0.023 | [19] -0.011 | [20] 0.023

NF2 (UniProt P35240)
inactive: [1] -0.088 | [2] 0.019 | [3] 0.056 | [4] -0.053 | [5] 0.017 | [6] -0.057 | [7] -0.029 | [8] 0.028 | [9] 0.017 | [10] -0.094 | [11] -0.06 | [12] 0.058 | [13] -0.054 | [14] -0.065 | [15] -0.036 | [16] -0.08 | [17] 0.019 | [18] -0.005 | [19] 0.033 | [20] 0

NPLOC4 isoform 2 (UniProt Q8TAT6)
inactive: [1] 0.006 | [2] 0.007 | [3] 0.084 | [4] -0.057 | [5] 0.011 | [6] -0.016 | [7] -0.007 | [8] 0.004 | [9] -0.033 | [10] 0.028 | [11] -0.055 | [12] 0.011 | [13] -0.014 | [14] -0.015 | [15] -0.021 | [16] -0.013 | [17] 0.048 | [18] 0.04 | [19] 0.004 | [20] 0.051

NME6 (UniProt O75414)
inactive: [1] 0.085 | [2] 0.166 | [3] 0.056 | [4] 0.008 | [5] 0.132 | [6] 0.033 | [7] 0.037 | [8] -0.013 | [9] 0 | [10] 0.147 | [11] -0.099 | [12] -0.031 | [13] 0.028 | [14] 0.001 | [15] 0.014 | [16] -0.038 | [17] -0.023 | [18] 0.005 | [19] 0.013 | [20] 0.01

NEK7 (UniProt Q8TDX7)
inactive: [1] -0.034 | [2] -0.02 | [3] 0.07 | [4] -0.006 | [5] 0.036 | [6] -0.036 | [7] -0.069 | [8] 0.016 | [9] -0.032 | [10] -0.001 | [11] -0.091 | [12] 0.017 | [13] -0.081 | [14] -0.03 | [15] -0.102 | [16] 0.03 | [17] 0.11 | [18] -0.02 | [19] -0.028 | [20] -0.079

NLN (UniProt Q9BYT8)
inactive: [1] -0.014 | [2] -0.007 | [3] 0.013 | [4] -0.028 | [5] 0.062 | [6] 0.037 | [7] -0.05 | [8] -0.009 | [9] -0.058 | [10] -0.014 | [11] -0.045 | [12] -0.038 | [13] 0.001 | [14] 0.014 | [15] -0.018 | [16] -0.018 | [17] 0.01 | [18] 0.02 | [19] 0.002 | [20] 0.028

NIT1 (UniProt Q86X76)
inactive: [1] 0.023 | [2] 0.095 | [3] 0.046 | [4] -0.013 | [5] 0.042 | [6] -0.012 | [7] -0.024 | [8] -0.025 | [9] -0.042 | [10] 0 | [11] -0.01 | [12] -0.016 | [13] 0.023 | [14] -0.009 | [15] -0.018 | [16] -0.002 | [17] 0.037 | [18] -0.006 | [19] -0.019 | [20] -0.043
